Results are given in words; binding and its absence hold for the method and conditions named. In cells and extracts the contact can be indirect. These calls come from enrichment with a bait or labelling near it, and not all partners need be listed.
Molecular target: DNA polymerase alpha catalytic subunit POLA1 (human (endogenous in HEK293T)) (UniProt P09884)
Assay: affinity purification with mass spectrometry

The chains behind the UniProt entries cited, without tags or fusion partners.
UniProt P09884: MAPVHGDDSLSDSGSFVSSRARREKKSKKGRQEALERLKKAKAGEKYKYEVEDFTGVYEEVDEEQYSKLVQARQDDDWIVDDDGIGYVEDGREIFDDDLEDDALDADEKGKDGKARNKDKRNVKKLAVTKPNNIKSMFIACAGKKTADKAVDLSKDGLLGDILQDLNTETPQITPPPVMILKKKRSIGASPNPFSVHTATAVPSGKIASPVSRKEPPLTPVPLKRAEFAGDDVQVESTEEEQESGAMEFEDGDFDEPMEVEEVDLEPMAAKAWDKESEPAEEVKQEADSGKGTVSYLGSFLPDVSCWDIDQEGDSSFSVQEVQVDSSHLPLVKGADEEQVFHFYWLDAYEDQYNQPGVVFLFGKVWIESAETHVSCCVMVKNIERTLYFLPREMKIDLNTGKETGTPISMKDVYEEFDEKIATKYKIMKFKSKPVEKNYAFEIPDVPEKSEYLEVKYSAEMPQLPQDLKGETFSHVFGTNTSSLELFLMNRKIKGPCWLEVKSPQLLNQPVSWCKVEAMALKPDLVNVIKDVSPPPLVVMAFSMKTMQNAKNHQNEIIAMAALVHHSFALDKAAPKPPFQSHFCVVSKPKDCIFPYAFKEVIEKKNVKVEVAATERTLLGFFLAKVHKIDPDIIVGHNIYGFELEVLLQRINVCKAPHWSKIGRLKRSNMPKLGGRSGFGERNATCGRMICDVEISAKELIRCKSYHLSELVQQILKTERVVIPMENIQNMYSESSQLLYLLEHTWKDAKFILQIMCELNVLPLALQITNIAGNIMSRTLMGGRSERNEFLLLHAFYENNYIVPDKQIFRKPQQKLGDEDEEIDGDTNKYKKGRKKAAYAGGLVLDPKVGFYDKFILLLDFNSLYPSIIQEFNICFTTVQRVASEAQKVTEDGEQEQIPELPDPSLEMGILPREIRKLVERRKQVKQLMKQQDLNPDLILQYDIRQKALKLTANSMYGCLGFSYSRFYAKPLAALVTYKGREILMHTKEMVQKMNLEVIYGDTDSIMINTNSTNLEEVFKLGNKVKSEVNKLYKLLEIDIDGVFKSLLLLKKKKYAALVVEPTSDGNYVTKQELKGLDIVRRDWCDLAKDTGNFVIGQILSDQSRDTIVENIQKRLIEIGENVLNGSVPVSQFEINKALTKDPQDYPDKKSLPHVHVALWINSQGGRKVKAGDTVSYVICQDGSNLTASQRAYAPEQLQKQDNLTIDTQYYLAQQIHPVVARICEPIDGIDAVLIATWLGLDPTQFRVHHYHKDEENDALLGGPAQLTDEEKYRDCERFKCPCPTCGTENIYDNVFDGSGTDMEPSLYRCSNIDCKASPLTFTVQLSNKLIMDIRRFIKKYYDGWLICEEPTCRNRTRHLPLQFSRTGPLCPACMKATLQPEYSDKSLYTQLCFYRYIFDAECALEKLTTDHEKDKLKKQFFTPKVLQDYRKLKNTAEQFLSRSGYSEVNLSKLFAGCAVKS

B1: DNA primase subunit PRIM1 (protein, UniProt P49642 1-420)
chain: METFDPTELPELLKLYYRRLFPYSQYYRWLNYGGVIKNYFQHREFSFTLKDDIYIRYQSFNNQSDLEKEMQKMNPYKIDIGAVYSHRPNQHNTVKLGAFQAQEKELVFDIDMTDYDDVRRCCSSADICPKCWTLMTMAIRIIDRALKEDFGFKHRLWVYSGRRGVHCWVCDESVRKLSSAVRSGIVEYLSLVKGGQDVKKKVHLSEKIHPFIRKSINIIKKYFEEYALVNQDILENKESWDKILALVPETIHDELQQSFQKSHNSLQRWEHLKKVASRYQNNIKNDKYGPWLEWEIMLQYCFPRLDINVSKGINHLLKSPFSVHPKTGRISVPIDLQKVDQFDPFTVPTISFICRELDAISTNEEEKEENEAESDVKHRTRDYKKTSLAPYVKVFEHFLENLDKSRKGELLKKSDLQKDF
  binding: binds

Reference: publication PMC11049971
